The results in this text go back to publication PMC3103587.

By UniProt entry, the sequences of proteins in these tests, tags left out.
UniProt O35303: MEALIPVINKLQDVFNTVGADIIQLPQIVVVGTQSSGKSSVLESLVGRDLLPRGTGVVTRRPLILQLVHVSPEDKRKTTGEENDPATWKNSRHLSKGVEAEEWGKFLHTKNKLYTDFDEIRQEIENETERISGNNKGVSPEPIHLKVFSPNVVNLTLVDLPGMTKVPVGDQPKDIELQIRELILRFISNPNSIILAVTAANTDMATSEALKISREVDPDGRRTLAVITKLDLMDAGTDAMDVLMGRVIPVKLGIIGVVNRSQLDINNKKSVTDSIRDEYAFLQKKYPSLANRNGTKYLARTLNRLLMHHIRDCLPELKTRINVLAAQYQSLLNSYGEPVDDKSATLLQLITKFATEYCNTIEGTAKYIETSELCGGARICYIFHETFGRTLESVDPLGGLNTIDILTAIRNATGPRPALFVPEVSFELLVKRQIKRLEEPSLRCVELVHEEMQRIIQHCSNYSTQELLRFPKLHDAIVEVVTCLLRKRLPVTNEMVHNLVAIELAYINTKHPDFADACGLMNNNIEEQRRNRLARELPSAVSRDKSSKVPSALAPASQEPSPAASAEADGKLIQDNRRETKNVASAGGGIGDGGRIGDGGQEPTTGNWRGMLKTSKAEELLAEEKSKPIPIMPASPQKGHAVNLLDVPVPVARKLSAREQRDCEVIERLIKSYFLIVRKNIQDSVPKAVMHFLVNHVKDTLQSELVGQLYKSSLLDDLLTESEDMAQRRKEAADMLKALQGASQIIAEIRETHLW

No constants are given. Whether binding was seen depends on the method and setting. For some assays here: In cells and extracts the contact can be indirect. Some entries that bind do so weakly or less than the wild type. For some assays here: Tags and fused reporters may be left off the sequences shown.

The target of experiment [1] is dynamin-like protein DLP1/Drp1, full-length (two-hybrid construct) (UniProt O35303). Description: two-hybrid; semi-quantitative: Matchmaker Two-Hybrid System 3, yeast AH109; ratio of colony numbers on SD/-Leu/-Trp/-His and SD/-Leu/-Trp plates (HIS3 activity).
In a further experiment the target is T1, YFP-N-Myc-Mfn2 (UniProt O95140).
T1 sequence: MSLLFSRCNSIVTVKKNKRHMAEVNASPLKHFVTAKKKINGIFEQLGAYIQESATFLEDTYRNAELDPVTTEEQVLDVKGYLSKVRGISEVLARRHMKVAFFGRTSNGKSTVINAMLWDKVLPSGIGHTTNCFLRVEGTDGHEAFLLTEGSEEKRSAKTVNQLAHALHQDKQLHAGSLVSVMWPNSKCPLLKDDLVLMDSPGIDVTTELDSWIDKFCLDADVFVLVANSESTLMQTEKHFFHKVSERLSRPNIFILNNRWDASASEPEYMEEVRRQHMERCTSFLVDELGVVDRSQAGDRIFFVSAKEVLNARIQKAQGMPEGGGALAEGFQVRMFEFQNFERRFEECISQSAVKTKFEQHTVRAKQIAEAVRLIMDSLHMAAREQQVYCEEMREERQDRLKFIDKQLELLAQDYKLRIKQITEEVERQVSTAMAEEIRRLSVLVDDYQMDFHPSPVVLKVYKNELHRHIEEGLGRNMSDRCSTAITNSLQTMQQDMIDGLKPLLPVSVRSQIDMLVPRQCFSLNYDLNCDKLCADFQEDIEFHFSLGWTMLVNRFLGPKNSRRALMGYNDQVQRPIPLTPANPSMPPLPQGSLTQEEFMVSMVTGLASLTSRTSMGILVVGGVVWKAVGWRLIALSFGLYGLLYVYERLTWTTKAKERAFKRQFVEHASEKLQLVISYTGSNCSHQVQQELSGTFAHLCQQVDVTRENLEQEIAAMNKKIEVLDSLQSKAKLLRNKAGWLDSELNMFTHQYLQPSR
In words: split reporter; BiFC with YFP[1–158] and YFP[159–238] fragments in co-transfected cells (BHK-21 for Mfn2/DLP1).

For “dynamin-like protein DLP1/Drp1, full-length (two-hybrid construct) (from UniProt O35303 1-755)”, the binding result in experiment [1] is given as “binds”. On to “YFP-C-HA-DLP1 (from UniProt O35303 1-755)”, for which the binding entry with YFP-N-Myc-Mfn2 is “binds”.
